Laboratory results as given in article PMC6166629.

Chains of the proteins cited; added tags and fusions are not shown. Residues count along the entry.
UniProt P25705, residues 44-553: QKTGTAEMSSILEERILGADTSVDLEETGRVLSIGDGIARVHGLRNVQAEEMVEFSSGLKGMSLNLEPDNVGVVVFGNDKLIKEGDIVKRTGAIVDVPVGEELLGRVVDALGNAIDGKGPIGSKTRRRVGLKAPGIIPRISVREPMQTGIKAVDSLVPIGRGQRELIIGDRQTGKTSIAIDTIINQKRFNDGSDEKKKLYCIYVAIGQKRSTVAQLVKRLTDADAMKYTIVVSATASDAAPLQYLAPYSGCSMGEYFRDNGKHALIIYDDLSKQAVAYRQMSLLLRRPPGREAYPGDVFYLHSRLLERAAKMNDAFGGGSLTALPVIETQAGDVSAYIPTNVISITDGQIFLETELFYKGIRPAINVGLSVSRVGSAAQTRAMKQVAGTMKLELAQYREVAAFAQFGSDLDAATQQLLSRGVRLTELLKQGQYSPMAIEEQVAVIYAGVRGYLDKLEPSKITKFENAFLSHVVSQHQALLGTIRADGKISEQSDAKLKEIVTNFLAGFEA

Target: T1, UPF0587 protein C1orf123 (human (endogenous in HeLa)) (UniProt Q9NWV4)
T1 sequence: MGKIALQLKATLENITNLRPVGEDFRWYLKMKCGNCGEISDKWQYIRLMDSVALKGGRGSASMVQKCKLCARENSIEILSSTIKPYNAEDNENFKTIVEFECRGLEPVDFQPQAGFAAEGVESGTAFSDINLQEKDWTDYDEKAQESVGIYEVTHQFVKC
Assay: affinity purification with mass spectrometry; rabbit anti-C1ORF123 IgG (6 ug) with HeLa cell lysate, overnight 4 °C, protein A/G magnetic beads, binding buffer 0.025 M Tris, 0.15 M NaCl, 0.001 M EDTA, 1% NP40, 5% glycerol; elution with glycine pH 2; nanoLC-Orbitrap MS; hits had to be found both in this sample and in a second lysate with 60 ug purified rC1ORF123 added, and not in the rabbit IgG control

## ATP synthase subunit alpha, mitochondria (from UniProt P25705 44-553)
  binding: binds

No constants are given. Whether binding was seen depends on the method and setting. Binding seen in cells or lysates may run through a third protein. These calls come from enrichment with a bait or labelling near it, and not all partners need be listed.
